From patent US20040210040A1 (PDL BIOPHARMA, published 2004)
No constants are given. Whether binding was seen depends on the method and setting. Some results given as binding are weak or reduced against the parent protein; the word gives no strength.

What was measured:
[1] = biological target: T1, full-length cell surface human AR on transfected CHO cells (human) (UniProt P15514); assay: flow cytometry on cells expressing AR (FIG. 2)
T1 sequence: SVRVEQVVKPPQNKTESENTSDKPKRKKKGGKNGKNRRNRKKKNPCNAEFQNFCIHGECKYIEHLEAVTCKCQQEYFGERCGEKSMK

[2] = biological target: T1, full-length cell surface human AR on transfected CHO cells (human); assay: table column BINDING: Surface AR (sheet footnote: direct binding as detected by ELISA; text: flow cytometry on CHO cells with surface human AR)
[3] = biological target: T1, full-length cell surface human AR on transfected CHO cells (human); assay: flow cytometry (FL2-H) on cells expressing surface amphiregulin
[4] = biological target: T2, recombinant soluble human amphiregulin (human, UniProt P15514 101-198, limits assumed); assay: competition ELISA on plate-coated recombinant soluble human amphiregulin; competes with biotinylated PAR34
T2 sequence: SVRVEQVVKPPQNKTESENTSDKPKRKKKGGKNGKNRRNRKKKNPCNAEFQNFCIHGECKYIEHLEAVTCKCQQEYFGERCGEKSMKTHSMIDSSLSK
Method: The affinity of HuPAR34 to human amphiregulin was analyzed by competition ELISA. MaxiSorp ELISA plates (Nalge Nunc International) were coated overnight at 4° C. with 100 μl/well of 0.5 μg/ml recombinant soluble human amphiregulin in 0.2 M sodium carbonate-bicarbonate buffer, pH 9.4, washed with Wash Buffer (PBS containing 0.1% Tween 20), and blocked for 15 min at room temperature with 200 μl/well of SuperBlock Blocking Buffer in TBS (Pierce Chemical Company). After washing with Wash Buffer, a mixture of biotinylated PAR34 (0.125 μg/ml final concentration) and competitor antibody (PAR34 or HuPAR34 starting at 75 μg/ml final concentration and serially diluted 3-fold) in 100 μl/well of ELISA buffer was added in triplicate. As a control, 100 μl/well of 75 μg/ml of humanized anti-CD33 IgG1/κ monoclonal antibody HuM195 (Co, M. S. et al., J. Immunol., 148: 1149-1154 (1992)) in ELISA buffer was used. As a no-competitor control, 100 μl/well of ELISA Buffer was used. After incubating the plates for 1 hr and washing with Wash Buffer, bound antibodies were detected using 100 μl/well of 1 μg/ml HRP-conjugated streptavidin (Pierce Chemical Company) in ELISA buffer. After incubating for 0.5 hr at room temperature and washing with Wash Buffer, color development was performed by adding 100 μl/well of ABTS substrate (KPL, Inc.). […] Absorbance was read at 415 nm. […]

[5] = biological target: T1, full-length cell surface human AR on transfected CHO cells (human); assay: flow cytometry on CHO transfectants expressing surface AR
[6] = biological target: T2, recombinant soluble human amphiregulin; assay: direct binding ELISA (table column BINDING: AR)
[7] = biological target: T2, recombinant soluble human amphiregulin; assay: competition ELISA on coated recombinant soluble human amphiregulin

Measured: binding

B1: PAR34 (murine anti-amphiregulin monoclonal antibody) (antibody, mouse IgG2b, V domains shown)
VH: EIQLQQSGPELVKPGASVKVSCKASGYAFTNYNMYWVKQSHGKSLEWIGYIDPYYGDPGYSQKFKGKATLTVDKSSSTAYMHLNSLTSEDSAVYYCARRGNFPYYFDYWGQGTTLTVSS
VL: DIKMTQSPSSMYASLGERVTITCKASQDINSYLSWFQQKPGKSPKTLIYRANRLVDGVPSRFSGSGSGQDYSLTISSLEYEDMGIYYCLQYDEFPYTFGGGTKLEIK
binds: [1] | [2] | [3] | [4] | [5] | [6]

B2: PAR80 (murine anti-amphiregulin monoclonal antibody) (antibody, mouse IgG2a, V domains shown)
VH: EVQLQQSGAELVRSGASVKLSCTASGFNIKDYYIHWVKQRPEQGLEWIGCIDPENGDTEYAPNFQGRATMTADTSSNTAYLQLSSLTSEDTAVYYCYGGTITFAYWGQGTLVTVSA
VL: QAVVTQESALTTSPGETVTLTCRSSTGAVTTSNSANWVQEKPDHLFTGLIGGTINRVPGVPARFSGSLIGDKAALTITGAQTEDEAIYFCALWYSNHWVFGGGTKLTVLG
binds: [1] | [2] | [3] | [5] | [6]

B3: HuPAR34 (humanized PAR34, IgG1/kappa) (antibody, V domains shown)
VH: EVQLVQSGAEVKKPGASVKISCKVSGYAFTNYNMYWVRQAPGKGLEWIGYIDPYYGDPGYSQKFKGKATLTVDKSTSTAYMELSSLRSEDTAVYYCARRGNFPYYFDYWGQGTLVTVSS
VL: DIQMTQSPSSLSASVGDRVTITCKASQDINSYLSWFQQKPGKAPKTLIYRANRLVDGVPSRFSGSGSGQDYTLTISSLQPEDFATYYCLQYDEFPYTFGGGTKVEIK
binds: [4] | [7]
